Data published in paper PMC12297799.

Target: T1, Tocopherol alpha transfer protein-like (TTPAL), bait of the CoIP-MS in HEK293T cells (human) (UniProt Q9BTX7)
T1 sequence: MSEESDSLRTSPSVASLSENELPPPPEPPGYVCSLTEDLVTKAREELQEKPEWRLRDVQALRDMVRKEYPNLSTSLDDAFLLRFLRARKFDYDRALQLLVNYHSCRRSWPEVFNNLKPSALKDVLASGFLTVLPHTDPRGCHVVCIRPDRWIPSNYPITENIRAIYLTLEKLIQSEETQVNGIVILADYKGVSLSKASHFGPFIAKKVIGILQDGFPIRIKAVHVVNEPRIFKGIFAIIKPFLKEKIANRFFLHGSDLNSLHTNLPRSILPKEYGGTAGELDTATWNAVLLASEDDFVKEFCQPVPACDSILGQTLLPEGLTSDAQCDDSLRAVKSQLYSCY
Assay: affinity purification with mass spectrometry; coimmunoprecipitation of TTPAL from HEK293T cells coupled with mass spectrometry (CoIP-MS)

binding: binds
B1: RBM14 (protein, UniProt Q96PK6 1-669)
chain: MKIFVGNVDGADTTPEELAALFAPYGTVMSCAVMKQFAFVHMRENAGALRAIEALHGHELRPGRALVVEMSRPRPLNTWKIFVGNVSAACTSQELRSLFERRGRVIECDVVKDYAFVHMEKEADAKAAIAQLNGKEVKGKRINVELSTKGQKKGPGLAVQSGDKTKKPGAGDTAFPGTGGFSATFDYQQAFGNSTGGFDGQARQPTPPFFGRDRSPLRRSPPRASYVAPLTAQPATYRAQPSVSLGAAYRAQPSASLGVGYRTQPMTAQAASYRAQPSVSLGAPYRGQLASPSSQSAAASSLGPYGGAQPSASALSSYGGQAAAASSLNSYGAQGSSLASYGNQPSSYGAQAASSYGVRAAASSYNTQGAASSLGSYGAQAASYGAQSAASSLAYGAQAASYNAQPSASYNAQSAPYAAQQAASYSSQPAAYVAQPATAAAYASQPAAYAAQATTPMAGSYGAQPVVQTQLNSYGAQASMGLSGSYGAQSAAAATGSYGAAAAYGAQPSATLAAPYRTQSSASLAASYAAQQHPQAAASYRGQPGNAYDGAGQPSAAYLSMSQGAVANANSTPPPYERTRLSPPRASYDDPYKKAVAMSKRYGSDRRLAELSDYRRLSESQLSFRRSPTKSSLDYRRLPDAHSDYARYSGSYNDYLRAAQMHSGYQRRM

binding: binds
B2: RBM15 (protein, UniProt Q96T37 1-977)
chain: MRTAGRDPVPRRSPRWRRAVPLCETSAGRRVTQLRGDDLRRPATMKGKERSPVKAKRSRGGEDSTSRGERSKKLGGSGGSNGSSSGKTDSGGGSRRSLHLDKSSSRGGSREYDTGGGSSSSRLHSYSSPSTKNSSGGGESRSSSRGGGGESRSSGAASSAPGGGDGAEYKTLKISELGSQLSDEAVEDGLFHEFKRFGDVSVKISHLSGSGSGDERVAFVNFRRPEDARAAKHARGRLVLYDRPLKIEAVYVSRRRSRSPLDKDTYPPSASVVGASVGGHRHPPGGGGGQRSLSPGGAALGYRDYRLQQLALGRLPPPPPPPLPRDLERERDYPFYERVRPAYSLEPRVGAGAGAAPFREVDEISPEDDQRANRTLFLGNLDITVTESDLRRAFDRFGVITEVDIKRPSRGQTSTYGFLKFENLDMSHRAKLAMSGKIIIRNPIKIGYGKATPTTRLWVGGLGPWVPLAALAREFDRFGTIRTIDYRKGDSWAYIQYESLDAAHAAWTHMRGFPLGGPDRRLRVDFADTEHRYQQQYLQPLPLTHYELVTDAFGHRAPDPLRGARDRTPPLLYRDRDRDLYPDSDWVPPPPPVRERSTRTAATSVPAYEPLDSLDRRRDGWSLDRDRGDRDLPSSRDQPRKRRLPEESGGRHLDRSPESDRPRKRHCAPSPDRSPELSSSRDRYNSDNDRSSRLLLERPSPIRDRRGSLEKSQGDKRDRKNSASAERDRKHRTTAPTEGKSPLKKEDRSDGSAPSTSTASSKLKSPSQKQDGGTAPVASASPKLCLAWQGMLLLKNSNFPSNMHLLQGDLQVASSLLVEGSTGGKVAQLKITQRLRLDQPKLDEVTRRIKVAGPNGYAILLAVPGSSDSRSSSSSAASDTATSTQRPLRNLVSYLKQKQAAGVISLPVGGNKDKENTGVLHAFPPCEFSQQFLDSPAKALAKSEEDYLVMIIVRGFGFQIGVRYENKKRENLALTLL

Results are given in words; binding and its absence hold for the method and conditions named. Binding seen in cells or lysates may run through a third protein. A yes stands for co-enrichment or nearness to the bait. Other partners may have been found. Each block holds one binder with its values, some of them ahead of it.
